{
  "source": "PubChem BioAssay AID504850",
  "about": "(National Center for Advancing Translational Sciences (NCATS), 2011)",
  "note": "Among all 2,300 compounds or so, about 1,200 (52%) were called active. The set was probably picked from earlier hits. Inconclusive results, whose numbers are uncertain, are shown with a selection of clear calls. Calls come from the whole dose curve; as a rule, active = well fitted inhibition curve with a large enough effect; inconclusive = small, poorly fitted or top-dose-only effect, or effect the other way; inactive = no such curve, though single readings can be large or run the other way. Potencies of inconclusive entries are doubtful fits and often do not repeat. % is set by controls: 0 for no effect and ±100 for the full control effect; potency is the fitted concentration of half-maximal effect.",
  "data": [
    {"experiment": "Confirmation screen for delayed death inhibitors of the malarial parasite plastid, 48 hour incubation; note: nearly all actives have a fitted effect of over 65% in size", "details": "P. falciparum-infected erythrocytes, luciferase growth; series mostly up to 28.7 µM; activity change, negative = inhibition: at the top concentration", "from_the_text": "The goal of this screen is to discover new antimalarial compounds that act by inhibiting the development of the apicoplast in the malarial parasite Plasmodium falciparum. The biochemical processes that make this organelle essential for erythrocytic stage parasites are not well understood. However, antibiotics, such as azithromycin and tetracycline, which target the apicoplast translational machinery, have a potent antimalarial effect. […] We have developed a cell-based assay that measures parasite growth based on the expression of an integrated copy of a firefly luciferase reporter. To detect small molecules that cause this \"delayed death phenotype, erythrocytes infected with the luciferase-expressing parasites were incubated with compounds for either one or two generations, corresponding to 48 and 96 hours, respectively. Compounds that inhibit parasite growth in the second generation, but not the first, should be enriched in antimalarials that target the apicoplast. Growth inhibition is detected by a decrease in luciferase activity. MLPCN Grant: R21 NS059500 Assay Provider: David Fidock and Eric Ekland, Columbia University Keywords: NIH Roadmap, MLPCN, MLI, MLSMR, qHTS, NCGC, qHTS, malaria, luciferase, viability\nFour microliters of culture medium (RPMI 1640 with 0.5% w/v Albumax (GIBCO), 24 mM sodium bicarbonate and 10 ug/mL gentamycin) were dispensed by a Multi-drop Combi into white solid 1536-well plates (Grenier) and 23 nL compound was added by a pin tool. Four microliters of infected erythrocytes (2% hematocrit, 0.1% parasitemia final concentration) in culture medium were dispensed and the plates incubated for 48 hours at 37 C in 5% CO2. Two microliters of luciferase detection reagent was added and luminescence was detected by a ViewLux (PerkinElmer) reader.", "values": [
      {"molecule": "COc1ccc2cc3[n+](cc2c1OC)CCc1cc2c(cc1-3)OCO2", "Potency": "active: 1.12 µM"},
      {"molecule": "Cc1ccc(NC(=O)CSc2nc3ccccc3c(=O)n2CCCN2CCCCC2)cc1Cl", "Potency": "active: 7.94 µM"},
      {"molecule": "C#CCn1c(S(=O)(=O)Cc2ccc(F)cc2)nc(-c2ccccc2)c1-c1ccccc1", "Potency": "active: 14.1 µM"},
      {"molecule": "O=c1[nH]c(NCc2ccccc2)nc2c1CCC2", "activity change, negative = inhibition": "inactive: -13.4%"},
      {"molecule": "N#C/C(=C\\c1c(Oc2ccccc2Cl)nc2ccccn2c1=O)C(=O)NC1CCS(=O)(=O)C1", "note": "(stereo unspecified)", "Potency": "inconclusive: 14.1 µM [inhibitor, single point]"},
      {"molecule": "CC1CCCN(Cc2c(O)ccc3c(=O)c(-c4nc5ccccc5s4)c(N)oc23)C1", "note": "(stereo unspecified)", "Potency": "active: 0.316 µM"},
      {"molecule": "Cn1c(CCn2ccccc2=O)nc2cc(NC(=O)COc3ccccc3)ccc21", "Potency": "inconclusive: 0.0708 µM [activator, full curve, poor fit]"},
      {"molecule": "COC(=O)c1ccc(COc2ccc(-c3nnn(CC(N)=O)n3)cc2)cc1", "Potency": "inconclusive: 2.82 µM [inhibitor, full curve]"},
      {"molecule": "O=C(CNC(=O)C1CCCCC1)OC(C(=O)c1ccccc1)c1ccccc1", "note": "(stereo unspecified)", "Potency": "inconclusive: 12.6 µM [inhibitor, partial curve, poor fit]"},
      {"molecule": "CN(CCCN1CCOCC1)C(=O)c1ccc2nc(Cc3cccc(Cl)c3)oc2c1", "Potency": "active: 14.1 µM"},
      {"molecule": "O=C(/C=C/Sc1ccccc1)c1ccccc1", "Potency": "inconclusive: 17.8 µM [inhibitor, partial curve, poor fit]"},
      {"molecule": "CCCc1c(NC(=O)Nc2ccc(Cl)cc2Cl)cnn1-c1ccccc1", "Potency": "inconclusive: 15.8 µM [inhibitor, single point]"},
      {"molecule": "N#Cc1cc(S(=O)(=O)c2ccccc2)c(N)[nH]c1=O", "activity change, negative = inhibition": "inactive: -20.3%"},
      {"molecule": "COc1ccccc1/C=C/C(=O)c1ccccc1", "Potency": "inconclusive: 1.12 µM [activator, full curve]"},
      {"molecule": "CCCCNC(=O)c1onc(CSc2ccccc2C)c1C(=O)O", "activity change, negative = inhibition": "inactive: 1.08%"},
      {"molecule": "Cc1ccc(S(=O)(=O)C2(C(=O)N3CCCCCC3)CC2)cc1", "activity change, negative = inhibition": "inactive: -19.3%"},
      {"molecule": "O=C(c1ccc(CS(=O)c2ccccc2Cl)o1)N1CCCCCC1", "note": "(stereo unspecified)", "Potency": "inconclusive: 14.1 µM [inhibitor, single point]"},
      {"molecule": "CCCc1cc(=O)oc2cc(OC(C)C(=O)NCc3ccccn3)c(Cl)cc12", "note": "(stereo unspecified)", "Potency": "inconclusive: 14.1 µM [inhibitor, single point]"},
      {"molecule": "CCOC(=O)c1c(S(=O)(=O)NCC(=O)Nc2cccc(C)c2C)c(C)n(C)c1C", "activity change, negative = inhibition": "inactive: -28.7%"},
      {"molecule": "CC(C)N1CCC(N2CCN(Cc3ccc(-c4ccc(Cl)cc4)o3)CC2CCO)CC1", "note": "(stereo unspecified)", "Potency": "active: 6.31 µM"},
      {"molecule": "COc1cccc(N2CC(C(=O)Nc3nnc(SCCC4OCCO4)s3)CC2=O)c1", "note": "(stereo unspecified)", "Potency": "active: 12.6 µM"},
      {"molecule": "CCNC(=O)NC(=O)C(C)OC(=O)c1oc2ccccc2c1CSC1CCCCC1", "note": "(stereo unspecified)", "Potency": "inconclusive: 15.8 µM [inhibitor, single point]"},
      {"molecule": "CCC(=O)N1CCc2cc(Br)cc(S(=O)(=O)CC(=O)OC)c21", "Potency": "inconclusive: 12.6 µM [inhibitor, single point]"},
      {"molecule": "Cc1ccccc1C(=O)Nc1ccc2c(c1)CCCN2C(=O)c1cccs1", "Potency": "active: 12.6 µM"},
      {"molecule": "CC(=O)c1cccc(NC(=O)COC(=O)c2ccc(S(C)(=O)=O)c([N+](=O)[O-])c2)c1", "Potency": "inconclusive: 12.6 µM [inhibitor, single point]"},
      {"molecule": "O=C(CCN1C(=O)/C(=C/c2ccccc2)SC1=S)NCCc1ccc(O)cc1", "activity change, negative = inhibition": "inactive: -6.1%"},
      {"molecule": "COc1ccc(N(CC(=O)N/N=C/c2cccnc2)S(=O)(=O)c2ccccc2)c(OC)c1", "Potency": "inconclusive: 7.08 µM [inhibitor, partial curve]"},
      {"molecule": "O=C(Nc1ccc(O)cc1)C1CC=CCC1", "note": "(stereo unspecified)", "Potency": "active: 7.94 µM"},
      {"molecule": "CC(C)N(Cc1nc2ccccc2c(=O)[nH]1)C(=O)c1ccc(NC(=O)CSc2nnnn2C)cc1", "Potency": "inconclusive: 14.1 µM [inhibitor, partial curve]"},
      {"molecule": "CN(C)C1(CNC(=O)C2CCC(=O)N(Cc3ccc(Cl)cc3)C2)CCCCC1", "note": "(stereo unspecified)", "Potency": "inconclusive: 12.6 µM [inhibitor, partial curve, poor fit]"},
      {"molecule": "Cc1cccc[n+]1CC(=O)c1ccc(NC(=O)c2ccccc2)cc1", "Potency": "active: 7.94 µM"},
      {"molecule": "O=C(Oc1ccc2ccccc2c1Br)N1CCCCCC1", "Potency": "inconclusive: 1.26 µM [activator, full curve]"},
      {"molecule": "CC(C)C[C@@H](CN=[N+]=[N-])N1CCN(C)CCC1=O", "activity change, negative = inhibition": "inactive: -2.87%"},
      {"molecule": "CCN(CC)c1ccc(NC(=S)NC(=O)C2CCC2)cc1", "Potency": "inconclusive: 15.8 µM [inhibitor, single point]"},
      {"molecule": "O=C1C2CCCN2C(c2ccccc2)N1c1ccc(Cl)cc1", "note": "(stereo unspecified)", "activity change, negative = inhibition": "inactive: -19.3%"},
      {"molecule": "Cc1c(NC(=O)COC(=O)c2cc(-c3ccc(-c4ccccc4)cc3)nc3ccccc23)c(=O)n(-c2ccccc2)n1C", "Potency": "inconclusive: 22.4 µM [inhibitor, single point]"},
      {"molecule": "O=C(CN1CCCCC1)N/N=C/c1ccc(Cl)cc1", "activity change, negative = inhibition": "inactive: 4.48%"},
      {"molecule": "COc1ccc(NS(=O)(=O)c2ccc(N3CCOCC3)c(NC(=O)c3ccc(OC)cc3)c2)cc1", "Potency": "active: 11.2 µM"},
      {"molecule": "CCCCCCCOc1ccc(C2(C)NC(=O)NC2=O)cc1", "note": "(stereo unspecified)", "Potency": "inconclusive: 15.8 µM [inhibitor, partial curve, poor fit]"},
      {"molecule": "CN(C(=O)CN1C(=O)CCSc2ccc(S(=O)(=O)N3CCCC3)cc21)c1ccccc1", "Potency": "active: 11.2 µM"},
      {"molecule": "CCN(CC)C(=O)CSc1nc(COc2ccccc2)nc2ccccc12", "Potency": "inconclusive: 11.2 µM [inhibitor, partial curve]"},
      {"molecule": "COc1cccc(NC(=O)CN2C(=O)NC3(CCCc4ccccc43)C2=O)c1", "note": "(stereo unspecified)", "Potency": "inconclusive: 2.82 µM [inhibitor, full curve, poor fit]"},
      {"molecule": "Cc1cc(C)cc(C(=O)NC(CC(N)=O)c2ccc(NCC3CC3)c([N+](=O)[O-])c2)c1", "note": "(stereo unspecified)", "activity change, negative = inhibition": "inactive: -17.3%"},
      {"molecule": "CCC(CC)N1CCN(Cc2nc3ccc([N+](=O)[O-])cc3c(=O)n2-c2ccccc2F)CC1", "Potency": "inconclusive: 12.6 µM [inhibitor, single point]"},
      {"molecule": "C[C@@H](CN1C2=NC[C@H](Cc3ccc(O)cc3)N2C[C@H]1Cc1ccc(O)cc1)NC(=O)CCC1CCCCC1", "Potency": "active: 8.91 µM"},
      {"molecule": "COc1cccc(N2CCN(S(=O)(=O)c3ccc4c(c3)oc(=O)n4C)CC2)c1", "Potency": "inconclusive: 7.08 µM [inhibitor, partial curve]"},
      {"molecule": "O=C(Nc1ccc(NC(=O)C2CC2)cn1)c1ccccc1Cl", "Potency": "inconclusive: 14.1 µM [activator, partial curve]"},
      {"molecule": "O=C(O)CCn1c(-c2ccccc2)cc2c1CCCC2=O", "activity change, negative = inhibition": "inactive: -9.21%"},
      {"molecule": "COc1ccc(N2CC(O)=C(c3nc(-c4ccccc4)cs3)C2=N)cc1", "Potency": "inconclusive: 15.8 µM [inhibitor, single point]"},
      {"molecule": "COc1ccc(/C=C2\\CCc3ccccc3C2=O)cc1CN1CCOCC1", "Potency": "inconclusive: 15.8 µM [inhibitor, single point]"},
      {"molecule": "O=C(Cc1cn2ccsc2n1)OCc1ccccc1", "Potency": "inconclusive: 1.58 µM [activator, full curve, poor fit]"},
      {"molecule": "O=C(O)c1ccc(C=C(c2nc3ccccc3s2)c2nc3ccccc3s2)cc1", "Potency": "inconclusive: 17.8 µM [inhibitor, partial curve, poor fit]"},
      {"molecule": "O=C(COC(=O)c1ccc(F)c(S(=O)(=O)N2CCOCC2)c1)Nc1ccc2[nH]c(=O)[nH]c2c1", "activity change, negative = inhibition": "inactive: -10.8%"},
      {"molecule": "COc1ccc(CN(C(=O)c2oc3ccc(F)cc3c2C)C2CCS(=O)(=O)C2)cc1", "note": "(stereo unspecified)", "Potency": "inconclusive: 15.8 µM [inhibitor, single point]"},
      {"molecule": "O=C(O)c1ccccc1Nc1ccc([N+](=O)[O-])cc1", "Potency": "inconclusive: 15.8 µM [activator, single point]"},
      {"molecule": "Fc1ccccc1N1CCN(c2ncnc3nc[nH]c23)CC1", "activity change, negative = inhibition": "inactive: 8.13%"},
      {"molecule": "CC1Sc2ccc(S(=O)(=O)CCC(=O)N(C)Cc3ccco3)cc2NC1=O", "note": "(stereo unspecified)", "Potency": "inconclusive: 11.2 µM [inhibitor, single point]"},
      {"molecule": "COc1ccc(C2=NN(C(=O)COC(=O)c3ccc(S(C)(=O)=O)c([N+](=O)[O-])c3)C(c3ccco3)C2)cc1", "note": "(stereo unspecified)", "Potency": "inconclusive: 15.8 µM [inhibitor, single point]"},
      {"molecule": "Cn1c(=O)c2c([nH]c(=O)n2C)n(C)c1=O", "activity change, negative = inhibition": "inactive: -0.358%"},
      {"molecule": "CN(C)N(C(=O)c1cc(-c2cccs2)nn1-c1ccccc1)C1CCS(=O)(=O)C1", "note": "(stereo unspecified)", "Potency": "inconclusive: 10 µM [inhibitor, single point]"},
      {"molecule": "Cc1c(Cl)ccc2c(C(=O)Nc3cc(C(C)(C)C)on3)cc(-c3ccccn3)nc12", "Potency": "inconclusive: 15.8 µM [inhibitor, single point]"},
      {"molecule": "O=C(Oc1ccc2ccccc2c1Cl)N1CCCCCC1", "Potency": "inconclusive: 0.562 µM [activator, full curve]"},
      {"molecule": "COc1cccc2sc(NNC(=O)c3nc4ccccc4s3)nc12", "Potency": "active: 15.8 µM"},
      {"molecule": "CC(C)(C)n1ncc2c(=O)n(Cc3ccccc3Br)cnc21", "Potency": "inconclusive: 15.8 µM [inhibitor, single point]"},
      {"molecule": "COCCNCCCCOc1ccc(Br)cc1C", "Potency": "inconclusive: 12.6 µM [inhibitor, single point]"},
      {"molecule": "O=C(NC1CCCCC1)c1ccc(CS(=O)Cc2ccccc2Cl)o1", "note": "(stereo unspecified)", "Potency": "active: 12.6 µM"},
      {"molecule": "O=C(O)CCNS(=O)(=O)c1cccc(Br)c1", "activity change, negative = inhibition": "inactive: -11.5%"},
      {"molecule": "COc1cccc(/C=C/C(=O)NNC(=O)c2ccco2)c1OC", "Potency": "inconclusive: 2.51 µM [activator, partial curve, poor fit]"},
      {"molecule": "CCOC(=O)c1c(C)[nH]c(N=Nc2ccccc2Cl)c1C", "Potency": "inconclusive: 2.51 µM [activator, partial curve]"},
      {"molecule": "N#CCCN1CCN(C2=NC(=O)C(=C3CCCCC3)S2)CC1", "Potency": "inconclusive: 17.8 µM [inhibitor, single point]"},
      {"molecule": "Cc1ccc(OCCn2cc(C(=S)N3CCCC3)c3ccccc32)cc1C", "Potency": "inconclusive: 15.8 µM [inhibitor, single point]"}
    ]}
  ]
}
